The nature of this series: general procedure: Fmoc solid-phase peptide synthesis; rink-amide-MBHA resin (0.7 mmol/g) for Fmoc; MBHA resin (1.03 mmol/g) for Boc thiodepsipeptides; PyBOP/DIEA; DIC/HOBT/DMAP for ester coupling. Conditions: conjugation step.

As for (Ac-RYRLNRIβA)8K4K2KY, the conjugation yield was above 85%.

Values taken from patent US11091786B2 (Nanyang Technological University, priority 2015, dated 2021).
